# Reference: the supplement of paper PMC3047530
# “And” between values parts separate entries of the source, which are not always exact repeats. Equal values may be shown once. ± gives the standard deviation of the averaged measurements. The list shows a part of the results. Most values come without repeats; read them as rough.
# Test system: Geomyces destructans
# Experiment: growth inhibition relative to DMSO control; higher = stronger growth inhibition
# Details: 10 µM; 15 °C; incubation time 10 days
row,SMILES,growth inhibition
1,CC(=O)NO,-4.77%
2,COc1cc(O)c2c(=O)c(O)c(-c3ccc(O)c(O)c3)oc2c1,-9.59%
3,CC(C)(S)[C@@H](N)C(=O)O,-17.4%
4,CO[C@H]1C[C@H](O[C@H]2[C@H](C)[C@@H](O[C@@H]3O[C@H](C)C[C@H](N(C)C)[C@H]3OC(C)=O)[C@@H](C)C[C@@]3(CO3)C(=O)[C@H](C)[C@@H](OC(C)=O)[C@@H](C)[C@@H](C)OC(=O)[C@@H]2C)O[C@@H](C)[C@@H]1OC(C)=O,-4.57%
5,COc1cc(C/C=C/c2ccccc2)c(OC)cc1O,29.7%
6,CC(=O)N[C@@H](CC(=O)O)C(=O)O,-31.7%
7,O=C1O[C@H](CO)[C@@H](O)[C@H](O)[C@H]1O,-6.86%
8,CC(=O)Oc1c(-c2ccccc2)oc2c(CC=C(C)C)c3c(c(OC(C)=O)c2c1=O)C=CC(C)(C)O3,-4.96%
9,CCCCCCCCCCC[C@@H](C[C@@H]1OC(=O)[C@H]1CCCCCC)OC(=O)[C@H](CC(C)C)NC=O,-29.7%
10,COc1c(O)cc2c(-c3ccccc3)cc(=O)oc2c1OC,4.01%
11,C=C1C2CC[C@@]3(C)[C@H](c4ccoc4)OC(=O)C[C@]13O[C@H]1CC(O)C(C)(C)C(CC(=O)OC)[C@@]21C (stereo partly drawn) [3alpha-HYDROXY-3-DEOXYANGOLENSIC ACID METHYL ESTER],-1.35 ± 14%
12,NC12CC3CC(CC(C3)C1)C2,-8.4%
13,Clc1ccc(COC(Cn2ccnc2)c2ccc(Cl)cc2Cl)c(Cl)c1 (stereo not drawn),-15.2%
14,Cc1cc(=O)n(-c2ccccc2)n1C,-13.2%
15,N=C1C=CC(=C(c2ccc(N)cc2)c2ccc(N)cc2)C=C1,59.4%
16,CC(=O)OC1CC[C@@]2(C)C(CC[C@H]3[C@@H]4CC=C(C(C)=O)[C@@]4(C)C(=O)C[C@@H]32)C1 (stereo partly drawn),-11.5%
17,C=CC(C)(O)CCC1C(=C)CC(O)C2C(C)(C)CCCC12C (stereo not drawn),-12.2%
18,CC(=O)N(O)CCCCCNC(=O)CCC(=O)N(O)CCCCCNC(=O)CCC(=O)N(O)CCCCCN,-4.67%
19,COC(=O)C[C@H]1C(C)(C)[C@@H](OC(C)=O)[C@]2(OC(C)=O)CC3=C4CC(=O)O[C@@H](c5ccoc5)[C@]4(C)CCC3[C@@]1(C)C2OC(C)=O (stereo partly drawn),-2.06%
20,NCCCCNCCCN,-0.551%
21,CN1CC(=O)NC1=N,6.9%
22,O=C1C=C2CC3(O)COc4c(ccc(O)c4O)C3=C2C=C1O (stereo not drawn),-5.72%

row,SMILES,growth inhibition
1,C[C@]12CC[C@@H]3c4ccc(O)cc4CC[C@H]3[C@@H]1CC[C@@H]2OC(=O)CCC1CCCC1,29%
2,CCC(Cc1c(I)cc(I)c(N)c1I)C(=O)O (stereo not drawn),-22.1%
3,CN1CCc2cccc3c2[C@H]1Cc1ccc(O)c(O)c1-3,-5.53%
4,CCOC(=O)C(C)(C)Oc1ccc(Cl)cc1,-9.44%
5,CO[C@@]1(NC(=O)CSCC#N)C(=O)N2C(C(=O)O)=C(CSc3nnnn3C)CS[C@@H]21,-9.89%
6,C[C@@H]1[C@H](O)[C@@H](C)/C=C/C=C/C=C/C=C/C=C/C=C/C=C/[C@H](O[C@@H]2O[C@H](C)[C@@H](O)[C@H](N)[C@@H]2O)C[C@@H]2O[C@](O)(C[C@@H](O)C[C@@H](O)[C@H](O)CC[C@@H](O)C[C@@H](O)CC(=O)O[C@H]1C)C[C@H](O)[C@H]2C(=O)O,-1.04%
7,N=C(N)N/N=C/c1c(Cl)cccc1Cl,1.31%
8,OC(CCN1CCCCC1)(c1ccccc1)C1CCCCC1 (stereo not drawn),-19.4%
9,O=C(OCc1ccccc1)c1ccccc1,-1.27%
10,CC(=O)O[C@@H]1C[C@H]2C(C)(C)CCC(=O)[C@]2(C)[C@H]2CC[C@@]3(C)[C@H](c4ccoc4)OC(=O)[C@H]4O[C@]43[C@@]21C,16.6%
11,CN(C)CCOC(=O)COc1ccc(Cl)cc1,5.83%
12,Cc1cc(O)c(C=O)c2c1C(=O)Oc1c(COC(=O)/C=C/C(=O)O)c(O)c(C(=O)O)c(C)c1O2,1.15%
13,Cc1cc(=O)c2c(O)c3c(cc2o1)OC(C)(C)CC3,4.1%
14,COC(=O)C[C@H]1C(C)(C)C(=O)[C@H]2CC3=C4CC(OC)O[C@@H](c5ccoc5)[C@@]4(C)CCC3[C@]1(C)C2=O (stereo partly drawn),0.78%
15,COC(=O)C(N)CS (stereo not drawn),-12.8%
16,CC(=O)OC1CCC2(O)CC1(C)CCC1C2CC1(C)C (stereo not drawn),0.773%
17,CC1(C)CC[C@]2(C(=O)O)[C@H](O)C[C@]3(C)C(=CC[C@@H]4[C@@]5(C)CC[C@H](O)C(C)(C)[C@@H]5CC[C@]43C)[C@H]2C1,-4.24%
18,Nc1cc(-c2ccncc2)c[nH]c1=O,-26.1%
19,CN(CCOc1ccc(CC2SC(=O)NC2=O)cc1)c1ccccn1 (stereo not drawn),-23.8%
20,CN(C)CC[C@@H](c1ccc(Cl)cc1)c1ccccn1,-10.9%
21,COC(=O)[C@@H]1OC(=O)C2OC23[C@@]1(C)CCC1[C@@]2(C)CCC(=O)C(C)(C)C2C[C@@H](OC(C)=O)[C@]13C (stereo partly drawn),2.6%
22,Cn1c([N+](=O)[O-])cnc1COC(N)=O,4.82%

# In a second layout: results already given
row	SMILES	growth inhibition
10	CC(=O)O[C@@H]1C[C@H]2C(C)(C)CCC(=O)[C@]2(C)[C@H]2CC[C@@]3(C)[C@H](c4ccoc4)OC(=O)[C@H]4O[C@]43[C@@]21C	16.6%
11	CN(C)CCOC(=O)COc1ccc(Cl)cc1	5.83%
12	Cc1cc(O)c(C=O)c2c1C(=O)Oc1c(COC(=O)/C=C/C(=O)O)c(O)c(C(=O)O)c(C)c1O2	1.15%
13	Cc1cc(=O)c2c(O)c3c(cc2o1)OC(C)(C)CC3	4.1%
14	COC(=O)C[C@H]1C(C)(C)C(=O)[C@H]2CC3=C4CC(OC)O[C@@H](c5ccoc5)[C@@]4(C)CCC3[C@]1(C)C2=O (stereo partly drawn)	0.78%
15	COC(=O)C(N)CS (stereo not drawn)	-12.8%

# Remaining list, next part

row,SMILES,growth inhibition
1,Nc1nc2ncc(C(=O)O)nc2c(=O)[nH]1,-12.3%
2,CCCCCCCCCCCCCCCCCC(=O)OC(CC(=O)O)C[N+](C)(C)C (stereo not drawn),-16.7%
3,CN(C)[C@@H]1C(O)=C(C(N)=O)C(=O)[C@@]2(O)C(O)=C3C(=O)c4c(O)ccc(Cl)c4[C@@H](O)[C@H]3C[C@@H]12,-2.62%
4,OC[C@H]1O[C@@H](O[C@@H]2[C@@H](CO)OC(O)(CO)[C@H]2O)[C@H](O)[C@@H](O)[C@H]1O (mixture of isomers),-4.5%
5,C[C@@H]1CC[C@@]2(OC1)O[C@H]1C[C@H]3[C@@H]4CC[C@@H]5C[C@@H](O)CC[C@]5(C)[C@H]4CC[C@]3(C)[C@H]1[C@@H]2C,4.17%
6,O=C(O)c1cc(O)c2ccc(Cl)cc2n1,0.462%
7,COc1ccc(-c2cc(C(F)F)nn2-c2ccc(S(N)(=O)=O)cc2)cc1F,-28.7%
8,CC(Oc1ccccc1)C(=O)N[C@@H]1C(=O)N2[C@@H]1SC(C)(C)[C@@H]2C(=O)O (stereo partly drawn),-29.7%
9,N[C@@H](C(=O)N[C@@H]1C(=O)N2C(C(=O)O)=C(Cl)CS[C@H]12)c1ccccc1,-9.92%
10,C[C@H](CCC(=O)O)[C@H]1CC[C@H]2[C@@H]3CC[C@@H]4CCCC[C@]4(C)[C@H]3CC[C@]12C,-5.41%
11,N=C(N)NC(=O)c1nc(Cl)c(N2CCCCCC2)nc1N,-39.4%
12,OCC(O)C(O)C(O)C(O)C(O)CO (stereo not drawn),-4.48%
13,COc1cc(O)c(C)c(O)c1,-0.882%
14,Cn1nnnc1SCC1=C(C(=O)O)N2C(=O)[C@@H](NC(=O)[C@H](OC=O)c3ccccc3)[C@H]2SC1,-1.9%
15,CCOC(=O)[C@H](CCc1ccccc1)N[C@@H](C)C(=O)N1CCC[C@H]1C(=O)O,-6.38%
16,CCc1cccc2c3c([nH]c12)C(CC)(CC(=O)O)OCC3 (stereo not drawn),-20.4%
17,Cc1noc(NS(=O)(=O)c2ccc(N)cc2)c1C,5.52%
18,CO[C@H]1C=C[C@@]23c4cc5c(cc4CN(C[C@@H]2O)[C@H]3C1)OCO5,-12%
19,CN(C)CCCO[C@@H]1[C@H]2OC(C)(C)O[C@H]2O[C@@H]1[C@H](O)CO,-41.4%
20,C[C@]12CC[C@@H]3c4ccc(O)cc4CC[C@H]3[C@@H]1C[C@@H](O)[C@@H]2O,67.9%
21,CCOc1ccc(C(=O)c2ccc(O)c(O)c2O)cc1,11.2%
22,CC1=C(CC(=O)O)c2cc(F)ccc2/C1=C\c1ccc([S+](C)[O-])cc1 (stereo not drawn),-24.2%

row,SMILES,growth inhibition
1,COc1ccc(-c2coc3c(OC)c(OC)cc(O)c3c2=O)cc1,-15.3%
2,COc1ccc(C(=O)c2ccc(O)cc2)c(O)c1O,-0.366%
3,CC(C)CCC[C@@H](C)[C@H]1CC[C@H]2[C@@H]3C(=O)C=C4C[C@@H](O)CC[C@]4(C)[C@H]3CC[C@]12C,13.2%
4,Cc1ccccc1N1C(=O)c2cc(S(N)(=O)=O)c(Cl)cc2NC1C (stereo not drawn),-18.5%
5,CO[C@H]1[C@H](O)[C@@H](O)[C@H](O)[C@H](O)[C@H]1O,-11.7%
6,OCCOCCN1CCN(C(c2ccccc2)c2ccc(Cl)cc2)CC1 (stereo not drawn),4.36%
7,CC(CCC(=O)O)[C@H]1CCC2C3CC[C@@H]4CC(=O)CC[C@]4(C)C3C=C[C@@]21C (stereo partly drawn),2.37%
8,CC(=O)O[C@H]1C[C@@H](OC(C)=O)C(C)(C)C2C[C@@H](O)[C@]3(C)C(CC[C@@]4(C)[C@H](c5ccoc5)OC(=O)[C@H]5O[C@]543)[C@]21C (stereo partly drawn),-10.4%
9,COc1ccc2c(c1)OCC(Cc1ccc(OC)c(OC(C)=O)c1)C2=O (stereo not drawn),23.4%
10,C[C@H](C[C@@H](O)[C@@H]1OC1(C)C)[C@@H]1CC[C@]2(C)C3=CC[C@H]4C(C)(C)C(=O)CC[C@]4(C)[C@H]3CC[C@@]12C,-6.96%
11,"COC(=O)[C@@H]1OC(=O)C2OC23[C@@]1(C)CCC1[C@]2(C)C(C[C@H](O)[C@]13C)C(C)(C)[C@H](OC(C)=O)C[C@@H]2OC(C)=O (stereo partly drawn) [7beta-HYDROXY-7-DESACETOXYKHIVORINIC ACID, METHYL ESTER]",0.78%
12,CC(=O)Nc1ccc(O)cc1,-39.9%
13,CC(=O)Oc1c(C)c(C)c2c(c1C)CCC(C)(CCCC(C)CCCC(C)CCCC(C)C)O2 (stereo not drawn) [alpha-TOCHOPHERYL ACETATE],-35.9%
14,NCCCC(N)C(=O)O (stereo not drawn),12.1%
15,CCCCC(CC)CN=C(N)N=C(N)NCCCCCCNC(N)=NC(N)=NCC(CC)CCCC (stereo not drawn),88.8%
16,COC(=O)C(C)c1ccc(C(=O)c2cccs2)cc1 (stereo not drawn),-28.4%
17,CN(C)[C@@H]1C(O)=C(C(N)=O)C(=O)[C@@]2(O)C(O)=C3C(=O)c4c(O)ccc(Cl)c4[C@@](C)(O)[C@H]3C[C@@H]12,-5.23% and 16.5%
18,CC(=O)OCC1=C(C(=O)O)N2C(=O)[C@@H](NC(=O)CSc3ccncc3)[C@H]2SC1,1.62%
19,Cc1cc(=O)c2c(O)c(C)c(O)cc2o1,-17.9%
20,C[C@]12CC[C@@H]3c4ccc(O)cc4CC[C@H]3[C@@H]1CCC2=O,8.79%
21,CC(=O)OC1CCC2(C)C3=C(CC[C@H]2C1(C)C)[C@@]1(C)CC[C@@H]([C@@H](C)CCC=C(C)C)[C@]1(C)CC3 (stereo partly drawn),-3.33%
22,CC(=O)OCC(=O)[C@@]1(O)CC[C@H]2[C@@H]3C[C@H](C)C4=CC(=O)C=C[C@]4(C)[C@H]3[C@@H](O)C[C@@]21C [6alpha-METHYLPREDNISOLONE ACETATE],-17.2%
